Assay results reported in the supplement of paper PMC6078165.
Values are relative to the signal before dosing, not to a vehicle control; the signal also falls without drug.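 Cells used are triple-negative breast cancer lines, either basal-like or mesenchymal-like, grown in the absence of fibroblasts. Lower red signal means mitochondrial integrity is lost, a surrogate for apoptosis.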

Legend:
Test in all cases: relative JC-1 red fluorescence (viability) vs pre-drug, monoculture (fraction); higher = more viable cancer cells
Details in all cases: coculture fibroblast: none (monoculture)
MDAMB468 = test system: MDAMB468
Experimental: (§1)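 JC-1 labelled TNBC cells grown in monoculture (density kept equal with unlabelled cancer cells) in 384-well plates in FluoroBrite medium, treated with one of 42 anticancer drugs at 0.1, 1, 10 or 100 uM. JC-1 red fluorescence (mitochondrial integrity, surrogate of apoptotic death) was read by plate reader every 8 h for 72 h. Values are normalised to each well's pre-drug value, with background from alamethicin. The stock of one drug was tenfold lower, so its dose labels may be too high. Monoculture values are repeated alongside each fibroblast plate and are averaged here.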

BT20 = test system: BT20
Experimental: as §1

Hs578T = test system: Hs578T
Experimental: as §1

HCC1143 = test system: HCC1143
Experimental: as §1

Nc1ccn([C@@H]2O[C@H](CO)[C@@H](O)C2(F)F)c(=O)n1 [Gemcitabine]
relative JC-1 red fluorescence
Details | 8 h | 16 h | 24 h | 32 h | 40 h | 48 h | 56 h | 64 h | 72 h
BT20, 0.1 µM | 0.952 | 0.879 | 0.797 | 0.742 | 0.718 | 0.686 | 0.671 | 0.643 | 0.642
BT20, 1 µM | 0.9233 | 0.862 | 0.808 | 0.746 | 0.727 | 0.719 | 0.703 | 0.696 | 0.7
BT20, 10 µM | 0.951 | 0.867 | 0.75 | 0.665 | 0.632 | 0.607 | 0.581 | 0.559 | 0.549
BT20, 100 µM | 0.93611 | 0.873 | 0.7785 | 0.72 | 0.681 | 0.662 | 0.624 | 0.599 | 0.582
HCC1143, 0.1 µM | 0.9152 | 0.866 | 0.775 | 0.719 | 0.654 | 0.609 | 0.578 | 0.56 | 0.529
HCC1143, 1 µM | 0.8687 | 0.76823 | 0.7024 | 0.6411 | 0.596 | 0.545 | 0.5037 | 0.472 | 0.458
HCC1143, 10 µM | 0.88937 | 0.80659 | 0.7214 | 0.6672 | 0.625 | 0.5936 | 0.5678 | 0.55096 | 0.54
HCC1143, 100 µM | 0.89815 | 0.813 | 0.753 | 0.714 | 0.668 | 0.631 | 0.618 | 0.607 | 0.5954
Hs578T, 0.1 µM | 0.8463 | 0.739 | 0.629 | 0.546 | 0.484 | 0.442 | 0.393 | 0.379 | 0.365
Hs578T, 1 µM | 0.8293 | 0.7103 | 0.705 | 0.639 | 0.598 | 0.579 | 0.559 | 0.571 | 0.568
Hs578T, 10 µM | 0.8254 | 0.743 | 0.657 | 0.603 | 0.546 | 0.511 | 0.47 | 0.45 | 0.4335
Hs578T, 100 µM | 0.831 | 0.707 | 0.688 | 0.624 | 0.575 | 0.56 | 0.54 | 0.545 | 0.54
MDAMB468, 0.1 µM | 0.8877 | 0.847 | 0.782 | 0.694 | 0.64 | 0.609 | 0.567 | 0.538 | 0.524
MDAMB468, 1 µM | 0.883 | 0.799 | 0.74 | 0.634 | 0.587 | 0.556 | 0.507 | 0.473 | 0.464
MDAMB468, 10 µM | 0.8815 | 0.7847 | 0.691 | 0.612 | 0.566 | 0.531 | 0.49 | 0.449 | 0.445
MDAMB468, 100 µM | 0.899 | 0.806 | 0.768 | 0.6736 | 0.6382 | 0.603 | 0.5625 | 0.528 | 0.515

CCN(CC)CCNC(=O)c1c(C)[nH]c(/C=C2\C(=O)Nc3ccc(F)cc32)c1C [Sunitinib]
relative JC-1 red fluorescence
Details | 8 h | 16 h | 24 h | 32 h | 40 h | 48 h | 56 h | 64 h | 72 h
BT20, 0.1 µM | 0.905 | 0.8228 | 0.797 | 0.731 | 0.691 | 0.676 | 0.662 | 0.661 | 0.654
BT20, 1 µM | 0.939 | 0.859 | 0.838 | 0.774 | 0.74 | 0.725 | 0.688 | 0.684 | 0.664
BT20, 10 µM | 0.953 | 0.943 | 0.809 | 0.649 | 0.525 | 0.464 | 0.387 | 0.36 | 0.313
BT20, 100 µM | 0.311 | 0.185 | 0.2 | 0.149 | 0.123 | 0.126 | 0.098 | 0.0911 | 0.0836
HCC1143, 0.1 µM | 0.853 | 0.758 | 0.7055 | 0.65874 | 0.623 | 0.604 | 0.586 | 0.5729 | 0.5655
HCC1143, 1 µM | 0.884 | 0.798 | 0.75 | 0.702 | 0.664 | 0.629 | 0.607 | 0.586 | 0.573
HCC1143, 10 µM | 0.8419 | 0.641 | 0.522 | 0.436 | 0.371 | 0.312 | 0.272 | 0.239 | 0.208
HCC1143, 100 µM | 0.316 | 0.225 | 0.223 | 0.202 | 0.187 | 0.191 | 0.18 | 0.17 | 0.166
Hs578T, 0.1 µM | 0.87 | 0.744 | 0.667 | 0.602 | 0.537 | 0.497 | 0.461 | 0.448 | 0.432
Hs578T, 1 µM | 0.8145 | 0.6886 | 0.656 | 0.6056 | 0.5804 | 0.554 | 0.5332 | 0.52 | 0.508
Hs578T, 10 µM | 0.48 | 0.285 | 0.248 | 0.163 | 0.131 | 0.114 | 0.0953 | 0.0887 | 0.0748
Hs578T, 100 µM | 0.439 | 0.3 | 0.31 | 0.269 | 0.25 | 0.261 | 0.248 | 0.245 | 0.238
MDAMB468, 0.1 µM | 0.872 | 0.766 | 0.745 | 0.689 | 0.649 | 0.6395 | 0.6078 | 0.594 | 0.591
MDAMB468, 1 µM | 0.885 | 0.799 | 0.749 | 0.682 | 0.632 | 0.605 | 0.568 | 0.533 | 0.515
MDAMB468, 10 µM | 0.712 | 0.366 | 0.258 | 0.194 | 0.158 | 0.144 | 0.119 | 0.103 | 0.0884
MDAMB468, 100 µM | 0.439 | 0.278 | 0.305 | 0.252 | 0.259 | 0.275 | 0.266 | 0.257 | 0.278
